These are yes or no findings as the source states them, for the method shown. Some binding calls cover weakened binding; strength is not graded here. Where a sequence is shown, tags or fusion partners need not be part of it.
Target: T1, gp11 fused to an HA peptide (gp11-HA), bacteriophage T4 gene product 11 (bacteriophage T4) (UniProt P10929)
T1 sequence: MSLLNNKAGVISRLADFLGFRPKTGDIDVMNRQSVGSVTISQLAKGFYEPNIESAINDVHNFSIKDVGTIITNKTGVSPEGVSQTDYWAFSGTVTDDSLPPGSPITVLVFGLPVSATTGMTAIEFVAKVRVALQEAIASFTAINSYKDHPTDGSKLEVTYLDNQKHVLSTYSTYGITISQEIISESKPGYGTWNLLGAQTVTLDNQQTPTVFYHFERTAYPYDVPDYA
Assay: on-chip cell-free expression, capture on a gp11-HA / anti-HA surface

Chains of the proteins cited; added tags and fusions are not shown. Lines headed by an entry give the natural chain unless they say otherwise; changes in a name come on top.
UniProt P10928: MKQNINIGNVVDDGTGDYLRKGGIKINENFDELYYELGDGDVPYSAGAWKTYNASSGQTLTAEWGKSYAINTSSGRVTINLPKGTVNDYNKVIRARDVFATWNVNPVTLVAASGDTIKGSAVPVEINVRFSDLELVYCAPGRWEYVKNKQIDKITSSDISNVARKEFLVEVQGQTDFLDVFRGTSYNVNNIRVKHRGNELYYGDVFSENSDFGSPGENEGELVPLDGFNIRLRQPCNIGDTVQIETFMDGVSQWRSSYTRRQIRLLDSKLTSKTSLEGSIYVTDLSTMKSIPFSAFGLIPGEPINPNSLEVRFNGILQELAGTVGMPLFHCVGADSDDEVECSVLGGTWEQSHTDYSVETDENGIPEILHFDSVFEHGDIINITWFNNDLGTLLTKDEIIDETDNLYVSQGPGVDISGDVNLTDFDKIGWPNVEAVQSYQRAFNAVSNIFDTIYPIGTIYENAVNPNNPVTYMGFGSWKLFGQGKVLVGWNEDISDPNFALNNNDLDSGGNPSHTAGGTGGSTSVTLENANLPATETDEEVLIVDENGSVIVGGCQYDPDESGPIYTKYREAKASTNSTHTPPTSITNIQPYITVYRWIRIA

With “T4 wedge, gp10-7-8-6 complex (bacteriophage T4) (from UniProt P10928 1-602; P19061 1-1032; P19062 1-334; P19060 1-660)” the binding was “binds”.
